Out of some 360,000 compounds screened, about 7,500 (2.1%) were called active. This list was built around the results that the source calls inconclusive (neither active nor inactive); the mix of calls is not that of the screen. Calls come from the whole dose curve; as a rule, active = well fitted inhibition curve with a large enough effect; inconclusive = small, poorly fitted or top-dose-only effect, or effect the other way; inactive = flat fitted curve, though single readings scatter. Potencies of inconclusive entries are doubtful fits and often do not repeat.
assay: Nrf2 qHTS screen for inhibitors; settings: A549 ARE-Fluc reporter, luciferase luminescence, 18-24 h; activity change, negative = inhibition: at 46 µM (top of the series); note: nearly all actives have a fitted effect of over 60% in size
Description: NIH Molecular Libraries Probe Production Network [MLPCN]
NIH Chemical Genomics Center [NCGC]
Assay Provider: Shyam Biswal, Johns Hopkins University
Nrf2 is a transcription factor that maintains cellular redox homoestasis and protects cells from xenobiotics. Nrf2 binds to the antioxidant response element (ARE) to induce gene expression of a broad spectrum of genes that encode for antioxidants. […] Finding a small molecule that act as an inhibitor of Nrf2 function would represent a novel therapeutic target that could lead to improvement in survival of patients undergoing chemo- and/or radio- therapy.
This is the Nrf2 activity measured in the luminescent read.
1. Shibata, T., et al., Genetic Alteration of Keap1 Confers Constitutive Nrf2 Activation and Resistance to Chemotherapy in Gallbladder Cancer. Gastroenterology, 2008.
2. Sjoblom, T., et al., The consensus coding sequences of human breast and colorectal cancers. Science, 2006. 314(5797): p. 268-74.
NCGC Assay Protocol Summary:
A concentration-response assay was performed with A549 ARE_Fluc cells which are suspended in 5% FBS OPTI-MEM. Five uL were dispensed into 1536-well white TC-treated plate using the Kalypsys dispenser to achieve a density of 5000 cells/well in all columns except column 1. The plate is incubated at 37deg C at 5% CO2 for 2 hours before 23 nL of compounds are added with the Kalypsys pin tool equipped with a 1,536-pin array containing 10-nL slotted pins (FP1S10, 0.457-mm diameter, 50.8 mm long; V&P Scientific). The control compounds Budesonide and Staurosporine are both added at a concentration of 2mM and Budesonide is also added as a 1:10 titration, starting at 200uM, to achieve dose-response. After an 18-24 hour incubation at 37deg C at 5% CO2, 5ul of medium is added to column 1. Afterwards 1ul of 5x of CellTiter-Fluor (Promega) is added to every well. The plate is then incubated at 37deg C at 5% CO2 for 30 minutes before they are read on the ViewLux (Perkin Elmer) for a fluorescent read Ex=405(10)/Em=525(10) for a 3 second exposure, 2x binning, and high gain. Then 3 uL of 3x BugLite is dispensed into all wells and the plate is incubated at ambient room temperature for 15 minutes. Afterwards another ViewLux read is performed using the clear filter to get a luminescent read with the settings of 40 second exposure, 2x binning, and high gain. Cytotoxicity is assessed through the first fluorescent read and then biochemical activity against Nrf2 is measured in the luminescent read.
% is set by controls: 0 for no effect and ±100 for the full control effect; potency is the fitted concentration of half-maximal effect.

| SMILES | Potency | activity change, negative = inhibition |
| --- | --- | --- |
| COc1ccc(C2C=C(C)Nc3ncnn32)cc1 (centres undefined) | inconclusive: 10.3 µM [activator, partial curve] |  |
| Oc1ccc2c3c1OC1c4[nH]c5ccccc5c4C[C@@]4(O)C(C2)N(CC2CC2)CC[C@]314 (some centres undefined) |  | inactive: -9.2% |
| CCN(CC)c1ccc(C=NN2CCCCCC2)cc1 | inconclusive: 29.1 µM [activator, single point] |  |
| CCn1cc(CN2CCCC(C(=O)c3sccc3C)C2)cn1 (centres undefined) | inconclusive: 23.1 µM [activator, single point] |  |
| Cc1nc2c(=O)n(C)c(=O)nc-2n(C)n1 | active: 2.31 µM |  |
| CCCCn1c(=O)c(C(=O)NCc2ccncc2)c(O)c2ccccc21 | inconclusive: 29.1 µM [falling, single point] |  |
| COC(=O)C1=C(c2ccc(F)cc2OCc2ccccc2)C[C@@H]2CC[C@H]1N2C(=O)NCc1ccccc1Cl | active: 5.17 µM |  |
| CC(=O)OC1CC(OC2C(O)CC(OC3C(O)CC(OC4CCC5(C)C(CCC6C5CC(O)C5(C)C(C7=CC(=O)OC7)CCC65O)C4)OC3C)OC2C)OC(C)C1OC1OC(CO)C(O)C(O)C1O (centres undefined) | active: 0.13 µM |  |
| CCCN1CCc2cc(O)cc3c2[C@H]1Cc1ccc(O)c(O)c1-3 |  | inactive: 0.441% |
| COC1=C(C)C(=O)C2=C(C1=O)C(CO)N1C(C#N)C3CC4C(C1C2N1CCOC41)N3C (centres undefined) | inconclusive: 3.66 µM [falling, full curve, poor fit] |  |
| CN1C(=O)NC(=O)C(C)(C2=CCCCC2)C1=O (centres undefined) | inconclusive: 13 µM [activator, partial curve] |  |
| O=C(c1cc(C(=O)NCc2ccccc2)c(=O)n(Cc2ccccc2)c1)c1cc(Br)ccc1O | inconclusive: 29.1 µM [falling, single point] |  |
| O=C1C(=O)N(c2ccccc2)P(=O)(N(CCCl)CCCl)N1c1ccccc1 | inconclusive: 14.6 µM [activator, partial curve, poor fit] |  |
| COc1ccc(NC2=NCCCS2)cc1OC | inconclusive: 16.4 µM [activator, partial curve, poor fit] |  |
| Cc1nn(C(C)(C)C)c(C)c1/C=N/OC(=O)Nc1ccc(Cl)cc1 | inconclusive: 29.1 µM [activator, partial curve, poor fit] |  |
| CCOc1ccc(Nc2c(S(=O)(=O)c3ccc(C)cc3)cnc3ccc(F)cc23)cc1 | inconclusive: 16.4 µM [falling, single point] |  |
| COc1ccc(-c2ccc(OC)c(OC)c2OC)cc1 | inconclusive: 20.6 µM [activator, partial curve, poor fit] |  |
| O=[N+]([O-])/C=C1/NCCN1Cc1ccc(Cl)nc1 |  | inactive: -0.207% |
| COc1ccc(OC)c(N2C(=O)NC(=O)C3(Cc4cc(C)ccc4N(C)C3)C2=O)c1 (centres undefined) | inconclusive: 16.4 µM [falling, partial curve] |  |
| O=C(c1ccc(CS(=O)(=O)c2ccccc2)o1)N1CCC2(CC1)OCCO2 |  | inactive: 13.7% |
| Cc1ccc(N2C(=O)NC(=O)/C(=C\c3cnc(-c4ccccc4)nc3)C2=O)cc1 |  | inactive: 1.15% |
| C=CCn1c(O)c(C(C)=Nc2ccc(C(=O)OCC)cc2)c(=O)[nH]c1=O |  | inactive: 7.11% |
| O=C(Nc1ccc(Cl)cc1)Nc1ccc(Cl)c(Cl)c1 | inconclusive: 29.1 µM [falling, single point] |  |

| SMILES | Potency | activity change, negative = inhibition |
| --- | --- | --- |
| Cc1cc(C(=O)Nc2ccc(CC(=O)O)cc2)c(C)o1 | active: 5.17 µM |  |
| COc1cc([C@@H]2c3cc4c(c(O)c3C[C@H]3COC(=O)[C@@H]32)OCO4)cc(OC)c1OC | inconclusive: 11.6 µM [activator, partial curve] |  |
| ClC1=C(Cl)C(Cl)=C(Cl)C1=C/C=C/c1ccccc1 | inconclusive: 29.1 µM [falling, single point] |  |
| CCCCOc1ccc(C(C)=O)cc1Cc1c(O)[nH]c(=S)[nH]c1=O |  | inactive: 1.56% |
| CC1(C)CC(CCNCc2ccc3c(c2)OCO3)(Cc2ccccc2)CCO1 (centres undefined) | inconclusive: 3.26 µM [activator, partial curve, poor fit] |  |
| O=C(N/N=C/c1c(O)n(C2CCCCC2)c(=S)[nH]c1=O)c1ccccc1O |  | inactive: 1.45% |
| O=c1[nH]c(O)c(N=Nc2ccc(Cl)c(S(=O)(=O)Nc3ccccc3Cl)c2)c(=O)[nH]1 | inconclusive: 2.06 µM [falling, partial curve, poor fit] |  |
| CCOC(=O)C(O)(c1ccc(NC(=O)c2ccc(Cl)c(Cl)c2)cc1)C(F)(F)F (centres undefined) | inconclusive: 29.1 µM [falling, partial curve, poor fit] |  |
| N=C1c2ccccc2CN1c1cccc([N+](=O)[O-])c1 |  | inactive: -6.12% |
| Cc1ccccc1-n1c(-c2ccc([N+](=O)[O-])cc2)nc2ccccc2c1=O | inconclusive: 14.6 µM [falling, single point] |  |
| C[C@]12CCC3C(C(=O)C[C@H]4C[C@@H](O)CC[C@]34C)C1CCC2=O (some centres undefined) |  | inactive: -19.8% |
| C[C@]12CCC(OC(=O)CCC(=O)O)CC1=CCC1C2CC[C@]2(C)C(=O)CCC12 (some centres undefined) |  | inactive: -17.8% |
| CN(C)c1ccc(C=C2C(=O)NC(=O)NC2=O)cc1 |  | inactive: -3.33% |
| CCC(=NCCc1ccccc1)c1c(O)n(C)c(=O)n(C)c1=O | active: 20.6 µM |  |
| COC(=O)C(O)(c1ccc(NC(=S)NC(=O)c2ccccc2)cc1)C(F)(F)F (centres undefined) | active: 16.4 µM |  |
| C=C(C)CSc1nnc([C@@H](N)Cc2c[nH]c3ccccc23)o1 | inconclusive: 0.82 µM [falling, full curve, poor fit] |  |
| O=C1c2ccccc2C(=O)N1Cc1nc2ccccc2c(=O)n1-c1ccccn1 | inconclusive: 0.411 µM [activator, full curve, poor fit] |  |
| COc1cc(OC)cc(C(=O)Nc2ccc(Br)cc2C(=O)c2ccccc2)c1 |  | inactive: -15.6% |
| CC(=O)Nc1ccc(C(=O)OCC(=O)Nc2ccc(Cl)cc2C(=O)c2ccccc2)cc1 |  | inactive: 4.95% |
| c1ccc(C2OCCN3CCCCC23)cc1 (centres undefined) | inconclusive: 4.11 µM [activator, single point] |  |
| CCC(=O)Oc1ccc(C(=O)Nc2cccc(C(=O)c3ccccc3)c2)cc1 | inconclusive: 32.6 µM [falling, single point] |  |
| COC(=O)C1=C(c2ccc(C(C)=O)cc2)C[C@@H]2CC[C@H]1N2C(=O)N1CCC(O)(c2ccc(Cl)cc2)CC1 | active: 23.1 µM |  |
| COC(=O)C1=C(c2ccc(-c3ccccc3)c(F)c2)C[C@@H]2CC[C@H]1N2C(=O)NC1CC1 | inconclusive: 25.9 µM [falling, partial curve, poor fit] |  |

| SMILES | Potency | activity change, negative = inhibition |
| --- | --- | --- |
| Nc1c2c(nc3sc4c(c13)CCCCC4)CCCC2 |  | inactive: 17.5% |
| C#CC(CC)(CC)NC(=O)Nc1ccc(OCC)cc1 | inconclusive: 16.4 µM [activator, partial curve, poor fit] |  |
| CC(C)(C#CC(=O)O)OOC(c1ccccc1)(c1ccccc1)c1ccccc1 | inconclusive: 29.1 µM [falling, single point] |  |
| COC(=O)C1=C(C(=O)OC)C2OC1c1cc3ccccc3cc12 | active: 20.6 µM |  |
| O=C1NC(=O)N(c2ccccc2)C(=O)/C1=C/C=C/c1ccco1 | inconclusive: 29.1 µM [falling, single point] |  |
| CN(C)C(=O)Oc1ccc2c(c1)O/C(=C\c1ccccc1)C2=O | inconclusive: 5.8 µM [activator, full curve] |  |
| Nc1c(C(=O)OCc2ccccc2)c2nc3ccccc3nc2n1Cc1cccs1 | active: 23.1 µM |  |
| Cc1ccc(-c2nnc(Nc3ccc(O)cc3)c3ccccc23)cc1S(=O)(=O)N1CCOCC1 | inconclusive: 32.6 µM [falling, single point] |  |
| COC(=O)C1=C(c2ccccc2)C[C@@H]2CC[C@H]1N2C(=O)NCc1ccco1 |  | inactive: 6.49% |
| Clc1ccc(CCC(Cn2ccnc2)Sc2c(Cl)cccc2Cl)cc1 (centres undefined) | inconclusive: 29.1 µM [falling, single point] |  |
| COC(/C(C)=C/C=C/C(C)=C/c1coc(C)n1)C(C)C1CC(O)C2(C)OC2C=CC(C)C2CC(CC(=O)O2)CC2OC2C(=O)O1 (centres undefined) | inconclusive: 0.0651 µM [activator, partial curve, poor fit] |  |
| CC(=O)c1cn(CC(=O)NCCc2c[nH]c3ccccc23)c2ccccc12 | inconclusive: 16.4 µM [falling, single point] |  |
| COC(=O)C1=C(c2ccc(OCc3ccccc3)cc2)C[C@@H]2CC[C@H]1N2C(=O)NCCN1CCOCC1 |  | inactive: 0.727% |
| CC(=O)OCC(=O)[C@H]1CC[C@H]2[C@@H]3CC[C@H]4C[C@H](O)CC[C@]4(C)[C@H]3C(=O)C[C@]12C |  | inactive: -14.3% |
| N#Cc1cc2c(nc1SCC(=O)Nc1cccc(C(F)(F)F)c1)C1CCN2CC1 | active: 20.6 µM |  |
| CCOP(=O)(OCC)/C(=N/OC(=O)c1ccc(Cl)cc1Cl)C(N)=O | inconclusive: 7.31 µM [falling, partial curve] |  |
| Cc1c2ccncc2c(C)c2c1[nH]c1ccccc12 | active: 7.31 µM |  |
| CC[C@@]1(O)C(=O)OCc2c1cc1n(c2=O)Cc2cc3c(NC(=O)CN)cccc3nc2-1 | active: 2.59 µM |  |
| C[C@]12CC[C@H](O)CC1=CCC1C2CC[C@@]2(C)C1C[C@@H]1CC(=O)O[C@@H]12 (some centres undefined) | active: 18.4 µM |  |
| C[N+]1(CC(COCc2ccccc2)OC(=O)Cc2ccccc2)CCOCC1 (centres undefined) |  | inactive: 2.39% |
| O=S(=O)(c1ccc(Cl)cc1)c1ccc(Cl)cc1 | inconclusive: 29.1 µM [falling, single point] |  |
| CCCCn1c(O)c(C(CC)=Nc2ccc(OC)cc2OC)c(=O)[nH]c1=O | inconclusive: 29.1 µM [falling, single point] |  |
| COC(=O)C1=C(c2ccc(-c3ccccc3)c(F)c2)C[C@@H]2CC[C@H]1N2C(=O)NCCCOC(C)C | active: 16.4 µM |  |

Part of the list above in order of number of heavy atoms, ascending:

| SMILES | Potency | activity change, negative = inhibition |
| --- | --- | --- |
| CCn1cc(CN2CCCC(C(=O)c3sccc3C)C2)cn1 (centres undefined) | inconclusive: 23.1 µM [activator, single point] |  |
| Cc1nn(C(C)(C)C)c(C)c1/C=N/OC(=O)Nc1ccc(Cl)cc1 | inconclusive: 29.1 µM [activator, partial curve, poor fit] |  |
| CC1(C)CC(CCNCc2ccc3c(c2)OCO3)(Cc2ccccc2)CCO1 (centres undefined) | inconclusive: 3.26 µM [activator, partial curve, poor fit] |  |
| O=C(c1cc(C(=O)NCc2ccccc2)c(=O)n(Cc2ccccc2)c1)c1cc(Br)ccc1O | inconclusive: 29.1 µM [falling, single point] |  |
